Experimental data: paper PMC10449923
No constants are given. Whether binding was seen depends on the method and setting. Binding seen in cells or lysates may run through a third protein. Binding can be weak; no strength is given.

The chains behind the UniProt entries cited, without tags or fusion partners. Where a name states a change or a piece, a line headed by the entry shows the natural chain unless it says otherwise.
UniProt P35222: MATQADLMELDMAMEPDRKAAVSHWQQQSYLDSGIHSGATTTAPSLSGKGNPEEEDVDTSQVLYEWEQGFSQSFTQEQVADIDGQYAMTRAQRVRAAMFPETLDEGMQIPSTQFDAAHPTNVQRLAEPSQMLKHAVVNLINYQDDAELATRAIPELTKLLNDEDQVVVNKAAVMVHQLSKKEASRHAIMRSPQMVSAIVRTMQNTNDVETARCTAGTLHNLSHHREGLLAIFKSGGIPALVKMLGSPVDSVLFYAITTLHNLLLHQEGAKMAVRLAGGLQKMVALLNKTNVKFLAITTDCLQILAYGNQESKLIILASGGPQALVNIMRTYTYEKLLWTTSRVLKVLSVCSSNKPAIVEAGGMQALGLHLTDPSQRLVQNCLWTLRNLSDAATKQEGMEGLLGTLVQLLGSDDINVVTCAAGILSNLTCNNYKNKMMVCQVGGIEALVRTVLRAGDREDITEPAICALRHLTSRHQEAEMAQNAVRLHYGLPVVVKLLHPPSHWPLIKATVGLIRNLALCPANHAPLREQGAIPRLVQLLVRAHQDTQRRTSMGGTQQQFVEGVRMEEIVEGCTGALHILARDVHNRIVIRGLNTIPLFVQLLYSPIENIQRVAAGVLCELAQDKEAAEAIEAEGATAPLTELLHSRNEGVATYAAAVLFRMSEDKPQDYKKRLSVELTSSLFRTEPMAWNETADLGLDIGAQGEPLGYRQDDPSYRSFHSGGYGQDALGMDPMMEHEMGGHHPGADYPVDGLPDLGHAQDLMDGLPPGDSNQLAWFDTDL

Target: catalytic domain of TET2 (Tet2CD) (UniProt Q6N021)
Test: co-IP; about 1 mg of cell lysate (SW480 and SW620 cells overexpressing Tet2CD or Tet2CD-mt), antibody (normally anti-Flag) overnight at 4 °C, Protein A/G magnetic beads, immunoblotting; lysis buffer 50 mM Tris pH 8.0, 150 mM NaCl, 10% glycerol, 0.5% NP40

**Q.** How did the binding turn out when “β-catenin (encoded by the CTNNB1 gene) (from UniProt P35222 1-781)” was run?
**A.** The binding was “binds”.
